The target in the test is human αB-crystallin (human) (UniProt P02511). Put plainly: dynamic light scattering; 1 mg/mL in phosphate buffer pH 7.4; 27, 37 and 47 °C; hydrodynamic diameter of the oligomers; both purified.

No constants are given. Whether binding was seen depends on the method and setting. Some results given as binding are weak or reduced against the parent protein; the word gives no strength.

B1: human αB-crystallin (protein, UniProt P02511 1-175)
chain: MDIAIHHPWIRRPFFPFHSPSRLFDQFFGEHLLESDLFPTSTSLSPFYLRPPSFLRAPSWFDTGLSEMRLEKDRFSVNLDVKHFSPEELKVKVLGDVIEVHGKHEERQDEHGFISREFHRKYRIPADVDPLTITSSLSSDGVLTVNGPRKQVSGPERTIPITREEKPAVTAAPKK
For B1, the binding result is reported as “binds”.

Source of the values: publication PMC9060347.
